These are yes or no findings as the source states them, for the method shown. Some entries that bind do so weakly or less than the wild type.
Columns and labels:
[1] = target: TAZ1 domain of CBP (residues 346-440) (UniProt Q92793); test: NMR titration
[2] = target: GB1-βCAT_(TAD2), β-catenin residues 730-781 fused to GB1 (human) (UniProt P35222); test: pull-down
[3] = target: GB1-βCAT_(CTERM), β-catenin residues 666-781 fused to the B1 domain of Streptococcus protein G (human) (UniProt P35222); test: pull-down
[4] = target: GB1-βCAT_(666-729), β-catenin residues 666-729 fused to GB1 (human) (UniProt P35222); test: pull-down
[5] = target: βCAT_(750-781), β-catenin residues 750-781 (human) (UniProt P35222); test: NMR titration
[6] = target: βCAT_(CTERM), β-catenin residues 666-781 (human) (UniProt P35222); test: NMR titration

By UniProt entry, the sequences of proteins in these tests, tags left out. Chains listed by the source or under a name are the forms on record and can include a tag or linker. Residues count along the entry.
TAZ1 domain of CBP (residues 346-440) (Q92793, residues 346-440): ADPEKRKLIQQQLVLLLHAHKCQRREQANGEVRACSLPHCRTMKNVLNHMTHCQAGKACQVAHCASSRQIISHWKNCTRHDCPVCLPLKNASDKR
KIX domain of CBP (residues 586-673) (Q92793, residues 586-673): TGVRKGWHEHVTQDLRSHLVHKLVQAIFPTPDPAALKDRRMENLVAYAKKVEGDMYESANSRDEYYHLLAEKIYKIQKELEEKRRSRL
βCAT_(CTERM), β-catenin residues 666-781 (P35222, residues 666-781): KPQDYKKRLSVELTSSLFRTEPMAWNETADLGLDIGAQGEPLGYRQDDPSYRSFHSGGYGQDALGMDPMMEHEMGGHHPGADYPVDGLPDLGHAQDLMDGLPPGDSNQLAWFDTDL
GB1-βCAT_(666-729), β-catenin residues 666-729 fused to GB1 (P35222, residues 666-729): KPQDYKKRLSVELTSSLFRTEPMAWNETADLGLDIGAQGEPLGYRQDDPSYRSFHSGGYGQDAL
GB1-βCAT_(TAD2), β-catenin residues 730-781 fused to GB1 (P35222, residues 730-781): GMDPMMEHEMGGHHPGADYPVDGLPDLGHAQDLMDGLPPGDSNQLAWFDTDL
βCAT_(750-781), β-catenin residues 750-781 (P35222, residues 750-781): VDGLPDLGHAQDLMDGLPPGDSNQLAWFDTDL

| binding [1] | Substance | binding [2] | binding [3] | binding [4] | binding [5] | binding [6] |
| --- | --- | --- | --- | --- | --- | --- |
| binds | βCAT_(750-781), β-catenin residues 750-781 (from UniProt P35222 750-781) (peptide) |  |  |  |  |  |
|  | KIX domain of CBP (residues 586-673) (from UniProt Q92793 586-673) (domain or fragment) | no binding (tested: 20 nmoles) | no binding (tested: 20 nmoles) | no binding (tested: 20 nmoles) |  |  |
|  | TAZ1 domain of CBP (residues 346-440) (from UniProt Q92793 346-440) (domain or fragment) | binds | binds |  | binds | binds |

— article doi:10.1101/2022.08.30.505852
